For some assays here: The exact form of at least one protein or probe is not confirmed. For some assays here: Negatives hold for the conditions tested.
Key:
RPS3 (Homo sapiens) = RPS3 (Homo sapiens) (UniProt P23396); test: protein domain microarray probed with biotinylated miRNA; details: Domain array: 20 mM Tris-HCl pH 7.4, 200 mM KCl, 0.2 mM EDTA, 0.05% NP40, 2 ug/ul heparin, overnight 4 C. ORF array: PBS pH 7.0 with RNase inhibitor, 100 ng RNA, 1 h.; high values mean tight binding; recombinant protein; protein details: N-terminal GST; letters put together from the description; counted as no binding
YTHDC1 (Homo sapiens) = YTHDC1 (Homo sapiens) (UniProt Q96MU7); test: as above; details: Domain array: 20 mM Tris-HCl pH 7.4, 200 mM KCl, 0.2 mM EDTA, 0.05% NP40, 2 ug/ul heparin, overnight 4 C. ORF array: PBS pH 7.0 with RNase inhibitor, 100 ng RNA, 1 h.; high values mean tight binding; recombinant protein; protein details: N-terminal GST; letters put together from the description; counted as no binding
SF3B6 (Homo sapiens) = SF3B6 (Homo sapiens) (UniProt Q9Y3B4); test: as above; details: Domain array: 20 mM Tris-HCl pH 7.4, 200 mM KCl, 0.2 mM EDTA, 0.05% NP40, 2 ug/ul heparin, overnight 4 C. ORF array: PBS pH 7.0 with RNase inhibitor, 100 ng RNA, 1 h.; high values mean tight binding; recombinant protein; protein details: N-terminal GST; letters put together from the description; counted as no binding
PABPC4L (Homo sapiens) = PABPC4L (Homo sapiens) (UniProt P0CB38); test: as above; details: Domain array: 20 mM Tris-HCl pH 7.4, 200 mM KCl, 0.2 mM EDTA, 0.05% NP40, 2 ug/ul heparin, overnight 4 C. ORF array: PBS pH 7.0 with RNase inhibitor, 100 ng RNA, 1 h.; high values mean tight binding; recombinant protein; protein details: N-terminal GST; letters put together from the description; counted as no binding
[1] = test system: QKI (recombinant His-QKI); test: fluorescence polarization; details: 2 mM Mg2+; FP: 20 mM HEPES pH 7.4, 150 mM NaCl, 2 mM MgCl2, 1 U/ul RiboLock, 10 mM DTT, 3 nM Cy3-RNA, 5 min, room temperature; recombinant protein; protein details: 6xHis; label: 3' Cy3
[2] = test system: QKI (recombinant His-QKI); test: UV cross-linking, SDS-PAGE mobility shift, anti-His blot; details: 23 or 230 nM QKI; domain array: 20 mM Tris-HCl pH 7.4, 200 mM KCl, 0.2 mM EDTA, 0.05% NP40, 2 ug/ul heparin, 4 C overnight; ORF array: PBS pH 7.0, 1 h; recombinant protein; protein details: 6xHis

Chains of the proteins cited; added tags and fusions are not shown. Lines headed by an entry give the natural chain unless they say otherwise; changes in a name come on top.
UniProt Q9Y3B4: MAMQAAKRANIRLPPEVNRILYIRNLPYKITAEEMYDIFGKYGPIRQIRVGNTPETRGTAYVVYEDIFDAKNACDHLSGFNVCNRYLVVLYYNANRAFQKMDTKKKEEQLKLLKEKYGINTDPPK
UniProt P0CB38: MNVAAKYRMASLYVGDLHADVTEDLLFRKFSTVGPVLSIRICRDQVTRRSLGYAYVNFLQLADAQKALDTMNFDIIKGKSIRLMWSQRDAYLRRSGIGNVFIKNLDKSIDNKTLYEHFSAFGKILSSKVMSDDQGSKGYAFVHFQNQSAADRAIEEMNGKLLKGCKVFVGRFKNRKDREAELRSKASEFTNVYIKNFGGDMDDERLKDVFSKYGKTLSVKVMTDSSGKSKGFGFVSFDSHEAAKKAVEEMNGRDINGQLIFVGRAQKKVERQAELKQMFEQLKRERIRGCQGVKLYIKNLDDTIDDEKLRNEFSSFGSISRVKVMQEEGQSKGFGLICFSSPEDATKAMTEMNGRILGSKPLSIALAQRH

Row | Sequence | binding signal (fluorescence intensity) (RPS3 (Homo sapiens)) | further results
1 | AGAGGUAGUAGGUUGCAUAGUU [let-7d biotin/Cy3] | 12.1 | 
2 | CAGUGCAAUGAUGAAAGGGCAU [miR-130b biotin/Cy3] | 13.4 | 
3 | UAGCUUAUCAGACUGAUGUUGA [miR-21 biotin/Cy3] | 8.3 | binding signal (fluorescence intensity) (YTHDC1 (Homo sapiens)): 15.1; binding signal (fluorescence intensity) (SF3B6 (Homo sapiens)): 18.6; binding signal (fluorescence intensity) (PABPC4L (Homo sapiens)): 19.2
4 | UGAGGUAGUAGGUUGCCAUUAU [mutant let-7b-Cy3] |  | binding result [1]: no binding
5 | UGAGGUAGUAGGUUGUAUAGUU [let-7a biotin/Cy3] | 9.21 | 
6 | UGAGGUAGUAGGUUGUAUGGUU [let-7c biotin/Cy3] | 10.7 | 
7 | UGAGGUAGUAGGUUGUGUGGUU [let-7b (mobility shift)] |  | binding result [2]: binds
8 | UGAGGUAGUAGGUUGUGUGGUU [let-7b biotin/Cy3] | 14.8 | 

Reference: PMC11574364
